Results are given in words; binding and its absence hold for the method and conditions named. In cells and extracts the contact can be indirect. Some binding calls cover weakened binding; strength is not graded here.
Molecular target: p75 neurotrophin receptor (rat (endogenous in rat BMSCs)) (UniProt P07174)
Assay: co-IP; rat BMSC lysate in IP lysis buffer; anti-p75NTR, anti-sortilin or anti-rabbit IgG overnight, Protein A/G agarose beads 2 h at 4 °C, four washes, Western blot

Protein sequences, listed by entry. Tags and fused reporters are not part of them. Residues count along the entry.
UniProt P07174, residues 30-425: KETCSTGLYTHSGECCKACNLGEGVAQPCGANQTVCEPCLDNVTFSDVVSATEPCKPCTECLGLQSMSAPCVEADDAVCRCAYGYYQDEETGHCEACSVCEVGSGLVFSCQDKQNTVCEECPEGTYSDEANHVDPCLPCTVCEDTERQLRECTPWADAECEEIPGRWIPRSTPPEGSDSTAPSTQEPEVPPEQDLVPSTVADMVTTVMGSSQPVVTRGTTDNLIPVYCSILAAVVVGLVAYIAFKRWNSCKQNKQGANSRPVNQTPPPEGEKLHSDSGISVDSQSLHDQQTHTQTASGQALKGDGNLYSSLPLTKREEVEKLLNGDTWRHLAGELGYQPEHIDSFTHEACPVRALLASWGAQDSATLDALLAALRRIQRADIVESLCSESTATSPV

- binding: binds
B1: sortilin (receptor, UniProt O54861 74-825)
chain: RRGAPAEDQDCGRLPDFIAKLTNNTHQHVFDDLSGSVSLSWVGDSTGVILVLTTFQVPLVIVSFGQSKLYRSEDYGKNFKDITNLINNTFIRTEFGMAIGPENSGKVILTAEVSGGSRGGRVFRSSDFAKNFVQTDLPFHPLTQMMYSPQNSDYLLALSTENGLWVSKNFGEKWEEIHKAVCLAKWGPNNIIFFTTHVNGSCKADLGALELWRTSDLGKTFKTIGVKIYSFGLGGRFLFASVMADKDTTRRIHVSTDQGDTWSMAQLPSVGQEQFYSILAANDDMVFMHVDEPGDTGFGTIFTSDDRGIVYSKSLDRHLYTTTGGETDFTNVTSLRGVYITSTLSEDNSIQSMITFDQGGRWEHLQKPENSKCDATAKNKNECSLHIHASYSISQKLNVPMAPLSEPNAVGIVIAHGSVGDAISVMVPDVYISDDGGYSWAKMLEGPHYYTILDSGGIIVAIEHSNRPINVIKFSTDEGQCWQSYVFSQEPVYFTGLASEPGARSMNISIWGFTESFLTRQWVSYTIDFKDILERNCEENDYTTWLAHSTDPGDYKDGCILGYKEQFLRLRKSSVCQNGRDYVVAKQPSICPCSLEDFLCDFGYFRPENASECVEQPELKGHELEFCLYGKEEHLTTNGYRKIPGDRCQGGMNPAREVKDLKKKCTSNFLNPKKQNSKSSSVPIILAIVGLMLVTVVAGVLIVKKYVCGGRFLVHRYSVLQQHAEADGVEALDTASHAKSGYHDDSDEDLLE

Source: paper PMC10953090
